Results deposited as PubChem BioAssay AID652259 (Drosophila RNAi Screening Center, 2013)

Purpose: 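Genome-wide hunt for genes that control Wingless pathway activity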 (primary screen)
System: Drosophila clone 8 imaginal disc epithelial cells
Knock-down reagent: long dsRNA against Drosophila genes
Conditions: pathway stimulated by co-transfected Wingless expression plasmid
Read-out: 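Firefly luciferase from a tcf-site Wingless reporter, measured alongside co-transfected Renilla luciferase that tracks transfection; pathway stimulated by a Wingless plasmid; the firefly-to-Renilla ratio is not deposited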
Scale: firefly reporter light: higher = more Wg reporter light, before normalisation; Renilla control light: higher = more transfected or surviving cells
Hit rule: 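a knock-down is a candidate when at least two out of four statistical tests show it departing from its plate mean; one test alone signals a weak candidate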
Calls: active = candidate regulator (raises or lowers reporter); inactive = not a candidate
In all, the deposit lists about 22,000 reagents; this is a random part of those with a known target gene and a result. Over the whole deposit, 233 (1.1%) are marked active. 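Light values are raw, unnormalised plate reads; the ratio scores behind the reporter calls were not deposited.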 Reagents against one gene are numbered here. A plus sign joins genes that one reagent is predicted to hit. Reagent sequences are not shown. Not stated in the record: the amount of reagent, the time to read-out, the dose of the treatment.

| gene | dsRNA no. | reporter change call, replicate 1 | firefly reporter light, replicate 1 | firefly reporter light, replicate 2 | Renilla control light, replicate 1 | Renilla control light, replicate 2 | outcome |
| --- | --- | --- | --- | --- | --- | --- | --- |
| up (upheld) | 1 | – | 3256 | 7533 | 963 | 2000 | inactive |
| lncRNA:CR43493 + l(1)G0196 | 1 | – | 4662 | 10834 | 1553 | 2688 | inactive |
| CG17571 | 1 | – | 17977 | – | 8913 | – | inactive |
| CG17571 | 2 | – | 2648 | 5005 | 890 | 2372 | inactive |
| Fie (Fire exit) | 1 | – | 6436 | – | 2633 | – | inactive |
| CG18628 | 1 | – | 9379 | – | 4213 | – | inactive |
| mrva (minerva) | 1 | – | 8149 | – | 3325 | – | inactive |
| mrva (minerva) | 2 | – | 5.97e5 | 5.57e5 | 2.68e5 | 3.02e5 | inactive |
| shn (schnurri) | 1 | – | 20595 | – | 17141 | – | inactive |
| shn (schnurri) | 2 | – | 13211 | – | 4311 | – | inactive |
| CG16713 | 1 | – | 3160 | 9433 | 1024 | 2787 | inactive |
| Helz (Helicase with zinc finger) | 1 | – | 4841 | – | 1853 | – | inactive |
| Arfrp1 (ADP-ribosylation factor related protein 1) | 1 | – | 3161 | 6580 | 731 | 1652 | inactive |
| CG1986 | 1 | – | 13516 | – | 7568 | – | inactive |
| CG31327 | 1 | – | 2492 | – | 925 | – | inactive |
| MCTS1 (Malignant T cell amplified sequence 1) | 1 | – | 3274 | 10428 | 1319 | 3385 | inactive |
| CG34169 | 1 | – | 22546 | – | 10000 | – | inactive |
| CG12229 | 1 | – | 5837 | – | 2413 | – | inactive |
| Hsc70-5 (Heat shock protein 70 cognate 5) | 1 | – | 17127 | – | 4064 | – | inactive |
| Scox (Synthesis of cytochrome c oxidase) | 1 | – | 2802 | 8186 | 800 | 2314 | inactive |
| CG42750 | 1 | – | 2976 | 9302 | 980 | 2757 | inactive |
| CG42750 | 2 | – | 2208 | 10628 | 1414 | 4556 | inactive |
| CG42750 | 3 | – | 3546 | 8233 | 1445 | 2832 | inactive |
| CG42750 | 4 | – | 8.07e5 | 8.28e5 | 4.11e5 | 3.61e5 | inactive |
| mask (multiple ankyrin repeats single KH domain) | 1 | Wg reporter activity lowered | 7716 | – | 13427 | – | inactive |
| mask (multiple ankyrin repeats single KH domain) | 2 | Wg reporter activity lowered | 1012 | 3321 | 949 | 1632 | inactive |
| mask (multiple ankyrin repeats single KH domain) | 3 | Wg reporter activity lowered | 777 | 3673 | 876 | 1767 | inactive |
| D12 | 1 | – | 12440 | – | 4868 | – | inactive |
| CG11723 | 1 | – | 10224 | – | 2377 | – | inactive |
| Pfas (Phosphoribosylformylglycinamidine synthase) | 1 | – | 10299 | – | 4900 | – | inactive |
| CG11145 | 1 | – | 3811 | 9529 | 1059 | 1936 | inactive |
| Spp (Signal peptide peptidase) | 1 | – | 7465 | – | 3722 | – | inactive |
| CG7465 | 1 | – | 2242 | 9869 | 986 | 3696 | inactive |
| CG7465 | 2 | – | 6.72e5 | 6.63e5 | 3.11e5 | 2.93e5 | inactive |
| CG17712 | 1 | – | 13900 | – | 6464 | – | inactive |
| Glt (Glutactin) | 1 | – | 6443 | – | 1696 | – | inactive |
| Pdcd4 (Programmed cell death 4) | 1 | – | 19443 | – | 11148 | – | inactive |
| CG6974 | 1 | – | 11271 | – | 3442 | – | inactive |
| CG5466 | 1 | – | 11932 | – | 752 | – | inactive |
| CG10051 | 1 | – | 5211 | – | 2272 | – | inactive |
| Ugt305A1 (UDP-glycosyltransferase family 305 member A1) | 1 | – | 4264 | – | 1626 | – | inactive |
| CG17732 | 1 | – | 19419 | – | 6087 | – | inactive |
| noi (noisette) | 1 | – | 6264 | – | 1968 | – | inactive |

Next part, starting with the last 3 of the part before.
| gene | dsRNA no. | reporter change call, replicate 1 | firefly reporter light, replicate 1 | firefly reporter light, replicate 2 | Renilla control light, replicate 1 | Renilla control light, replicate 2 | outcome |
| --- | --- | --- | --- | --- | --- | --- | --- |
| Ugt305A1 (UDP-glycosyltransferase family 305 member A1) | 1 | – | 4264 | – | 1626 | – | inactive |
| CG17732 | 1 | – | 19419 | – | 6087 | – | inactive |
| noi (noisette) | 1 | – | 6264 | – | 1968 | – | inactive |
| Naa40 (N(alpha)-acetyltransferase 40) | 1 | – | 7127 | – | 3203 | – | inactive |
| CG8960 | 1 | – | 17364 | – | 4272 | – | inactive |
| rngo (rings lost) | 1 | – | 5143 | – | 1226 | – | inactive |
| CG12523 | 1 | – | 8048 | – | 3542 | – | inactive |
| CG34300 | 1 | – | 4195 | – | 1917 | – | inactive |
| pont (pontin) | 1 | – | 14592 | – | 3425 | – | inactive |
| hubl (hug-bell) | 1 | – | 4992 | 8477 | 720 | 2650 | inactive |
| CG17219 | 1 | – | 3429 | 6365 | 1410 | 2685 | inactive |
| vkg (viking) | 1 | – | 2592 | 7245 | 845 | 2230 | inactive |
| CG32148 | 1 | – | 3376 | – | 1558 | – | inactive |
| tef (teflon) | 1 | – | 18213 | – | 5396 | – | inactive |
| tef (teflon) | 2 | – | 7.97e5 | 7.71e5 | 3.20e5 | 3.08e5 | inactive |
| CG12112 | 1 | – | 3946 | 10636 | 1332 | 3661 | inactive |
| GstD5 (Glutathione S transferase D5) | 1 | – | 12747 | – | 3697 | – | inactive |
| CG7492 | 1 | – | 3104 | – | 1542 | – | inactive |
| CG16956 | 1 | – | 2215 | 5299 | 1045 | 2422 | inactive |
| CG14866 | 1 | – | 19572 | – | 3016 | – | inactive |
| CG13970 | 1 | – | 2884 | 4272 | 529 | 1729 | inactive |
| Pink1 (PTEN-induced putative kinase 1) | 1 | – | 1922 | 5907 | 641 | 2072 | inactive |
| CG3225 | 1 | – | 11458 | – | 3864 | – | inactive |
| CG8860 | 1 | – | 8162 | – | 3053 | – | inactive |
| CG33303 | 1 | – | 1865 | 6755 | 697 | 3394 | inactive |
| Ald2 (Aldolase 2) | 1 | Wg reporter activity raised | 28493 | – | 4219 | – | active |
| Ald2 (Aldolase 2) | 2 | – | 19815 | – | 16217 | – | inactive |
| Desi (Desiccate) | 1 | – | 19925 | – | 4823 | – | inactive |
| Mkp3 (Mitogen-activated protein kinase phosphatase 3) | 1 | – | 5308 | – | 2605 | – | inactive |
| Mkp3 (Mitogen-activated protein kinase phosphatase 3) | 2 | – | 14566 | – | 4928 | – | inactive |
| CG14760 | 1 | – | 2036 | 6269 | 496 | 2432 | inactive |
| Or56a (Odorant receptor 56a) | 1 | – | 5931 | – | 2053 | – | inactive |
| Uhg2 + snoRNA:Me18S-G1620 + snoRNA:U14:30Ea | 1 | – | 13888 | – | 9824 | – | inactive |
